These are yes or no findings as the source states them, for the method shown. In cells and extracts the contact can be indirect. These calls come from enrichment with a bait or labelling near it, and not all partners need be listed. For part of these data: A no says only that the protein was not detected with the bait. For part of these data: Tags and fused reporters may be left off the sequences shown.
What was measured:
Experiment in all cases: affinity purification with mass spectrometry; GFP-tagged bait pulled down from clarified C. elegans lysate with GFP-Trap (anti-GFP nanobody agarose), 4 h at 4°C; lysis buffer 50 mM HEPES pH 7.4, 1 mM EGTA, 1 mM MgCl2, 100 mM KCl, 10% glycerol, 0.05% NP40, 1 mM DTT; 3 washes with 50 mM HEPES, 100 mM KCl; SDS-PAGE, Orbitrap LC-MS/MS; two independent experiments
GFP-ARCP-1B (C. elegans) = molecular target: GFP-ARCP-1B (C. elegans)
EIF-3.L-GFP (C. elegans) = molecular target: T1, EIF-3.L-GFP (C. elegans) (UniProt Q95QW0)
T1 sequence: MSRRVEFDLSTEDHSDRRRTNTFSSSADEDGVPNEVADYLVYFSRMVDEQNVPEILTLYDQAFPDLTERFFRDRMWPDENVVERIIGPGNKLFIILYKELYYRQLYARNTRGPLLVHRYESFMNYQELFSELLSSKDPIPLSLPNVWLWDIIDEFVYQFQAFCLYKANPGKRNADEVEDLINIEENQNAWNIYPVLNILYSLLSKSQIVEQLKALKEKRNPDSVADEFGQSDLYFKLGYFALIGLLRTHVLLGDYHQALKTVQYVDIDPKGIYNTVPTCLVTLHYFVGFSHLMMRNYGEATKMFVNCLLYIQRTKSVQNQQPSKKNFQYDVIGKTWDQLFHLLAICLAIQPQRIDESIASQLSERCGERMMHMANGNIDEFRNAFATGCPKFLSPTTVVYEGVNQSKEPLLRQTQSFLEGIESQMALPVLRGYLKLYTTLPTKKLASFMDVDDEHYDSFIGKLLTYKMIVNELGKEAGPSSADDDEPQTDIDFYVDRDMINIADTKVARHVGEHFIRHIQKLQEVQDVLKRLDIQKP

MALT-1-GFP (C. elegans) = molecular target: MALT-1-GFP (C. elegans)

B1: phosphodiesterase 1 (PDE-1) (enzyme, UniProt O18696 1-664)
chain: MNRARKTSSCGCFRSAFCLLKPSTSSASEEHGDSDKKLLSVQLITPRDEEEQTSSRSIKIPPLDLNGLDCKKNAVAARRAGRRRTSEGGGVRGKGHFAEVVLDGLQRPVSLLRNQKEKSNSDDNCQEKEPTSPSSSRKKSYDNAPALESLEKLRYILHQLNSGQLPLEDLKRNIEYAALVLETAYMDETRRICDEDDDLAEVTPETVPDEVREWLAATFTRQNAGKKRDKPKFKSVANAIRTGIFFEKLFRKQQVVQCPIPPEIAELMKEVCTWSFSPFQLNEVSEGHALKYVGFELFNRYGFMDRFKVPLTALENYLSALEVGYSKHNNPYHNVVHAADVTQSSHFMLSQTGLANSLGDLELLAVLFGALIHDYEHTGHTNNFHIQSQSQFAMLYNDRSVLENHHVSSCFRLMKEDDKNILTHLTRDEYKELRNMVIEIVLATDMSTHFMQIKTMKSMLSLPEGIDKNKALCLIVHACDISHPAKPWNLHERWTEGVLEEFFRQGDLEASMGLPYSPLCDRHTVHVADSQIGFIDFIVEPTMVVCGELLVKMVEPLVSLPPTDSLFPPSVDGGDDKSPSNALSPLPDLRNSSTSPSSIRRIPLNYAGKLDIPTPWMKFLHENKAHWKERAAKEEEERKIKEAAEAEAAAKQVEENKENGVTTN
For B1, the binding (GFP-ARCP-1B (C. elegans)) was “binds”, the binding (EIF-3.L-GFP (C. elegans)) was “no binding” and the binding (MALT-1-GFP (C. elegans)) was “no binding”.

— publication PMC6953435
